Experimental data as given in US20120021993A1 (AJOU UNIVERSITY INDUSTRY ACADEMIC COOPERATION FOUNDATION, published 2012).
Substitutions are numbered along the chain they refer to. Results are given in words; binding and its absence hold for the method and conditions named. Some binding calls cover weakened binding; strength is not graded here. Each block holds one binder with its values, some of them ahead of it.

The chains behind the UniProt entries cited, without tags or fusion partners. Where a name states a change or a piece, a line headed by the entry shows the natural chain unless it says otherwise. A line that says so, or that is headed by a name, gives the form on record, which may keep a tag or linker. Residues count along the entry.
human-derived cell death receptor 4, extracellular domain (amino acid residues 1-216), 6xHis tag (O00220, form named): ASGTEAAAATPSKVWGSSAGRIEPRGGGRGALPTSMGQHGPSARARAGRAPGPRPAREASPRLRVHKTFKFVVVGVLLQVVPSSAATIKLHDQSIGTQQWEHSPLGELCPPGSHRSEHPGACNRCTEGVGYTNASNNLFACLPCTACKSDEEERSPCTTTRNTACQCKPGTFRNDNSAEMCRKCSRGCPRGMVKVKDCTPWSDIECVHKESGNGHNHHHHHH

How the values were obtained:
[1] = biological target: human-derived cell death receptor 4, extracellular domain (amino acid residues 1-216), 6xHis tag (human) (UniProt O00220); test: ELISA, coated target, A405
[2] = biological target: human-derived cell death receptor 4, extracellular domain (amino acid residues 1-216), 6xHis tag (human) (UniProt O00220); test: ELISA, coated target, single binder concentration not given, A405
[3] = biological target: T1, DcR1 (UniProt O14798 26-221, limits assumed); test: as above
T1 sequence (looked up): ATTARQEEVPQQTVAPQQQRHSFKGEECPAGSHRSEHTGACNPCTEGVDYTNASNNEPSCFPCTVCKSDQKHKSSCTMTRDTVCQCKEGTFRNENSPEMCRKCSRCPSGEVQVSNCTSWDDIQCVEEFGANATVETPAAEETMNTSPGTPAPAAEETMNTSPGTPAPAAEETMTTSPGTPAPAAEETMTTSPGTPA

[4] = biological target: T2, DcR2 (UniProt Q9UBN6 56-211, limits assumed); test: as above
T2 sequence (looked up): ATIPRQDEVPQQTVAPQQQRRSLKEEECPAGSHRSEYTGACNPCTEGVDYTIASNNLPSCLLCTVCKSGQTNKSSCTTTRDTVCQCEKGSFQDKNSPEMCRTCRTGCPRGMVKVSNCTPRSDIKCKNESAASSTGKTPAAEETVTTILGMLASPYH

[5] = biological target: human-derived cell death receptor 4, extracellular domain (amino acid residues 1-216), 6xHis tag (human) (UniProt O00220); test: yeast display, flow cytometry MFI [panel KD413]
[6] = biological target: T1, DcR1; test: cross-reactivity ELISA
[7] = biological target: human-derived cell death receptor 4, extracellular domain (amino acid residues 1-216), 6xHis tag (human) (UniProt O00220); test: yeast display, flow cytometry MFI [panel KD548]
[8] = biological target: human-derived cell death receptor 4, extracellular domain (amino acid residues 1-216), 6xHis tag (human) (UniProt O00220); test: yeast display, flow cytometry MFI [panel KD415]
[9] = biological target: human-derived cell death receptor 4, extracellular domain (amino acid residues 1-216), 6xHis tag (human) (UniProt O00220); test: ELISA
[10] = biological target: human-derived cell death receptor 4, extracellular domain (amino acid residues 1-216), 6xHis tag (human) (UniProt O00220); test: yeast display, flow cytometry MFI
[11] = biological target: human-derived cell death receptor 4, extracellular domain (amino acid residues 1-216), 6xHis tag (human) (UniProt O00220); test: sandwich ELISA: DR4 coated, binder titrated, soluble DR5 detected, A405
[12] = biological target: human-derived cell death receptor 4, extracellular domain (amino acid residues 1-216), 6xHis tag (human) (UniProt O00220); test: ELISA, coated DR4, A405
[13] = biological target: human-derived cell death receptor 4, extracellular domain (amino acid residues 1-216), 6xHis tag (human) (UniProt O00220); test: ELISA and sandwich ELISA (plate-coated DR4, soluble DR5)
[14] = biological target: human-derived cell death receptor 4, extracellular domain (amino acid residues 1-216), 6xHis tag (human) (UniProt O00220); test: sandwich ELISA (figure legend)

B1: KD449 (designed binder)
chain: CDRYKGYRYDGHRYKTHKGHKCQHWDEDQPHNHGHGHRIKDGFEVRKNYCRNPDAGTKPWCFTDKDQNRHELCYKPRC
- binding [1]: binds
- binding [2]: binds

- binding [3]: binds
- binding [4]: binds
B2: KD559 (designed binder, not shown: small tags and cut ends)
chain: CNKHKGPRYDGHKDKTNKGHECQPWNRPKPHDHGHKHQFKDKNRLEKNYCRNPDHRNEPWCFTHGNRNGDELCFRPRC
- binding [2]: binds

- binding [3]: binds
- binding [4]: binds
B3: KD542 (designed binder)
chain: CNRAGGHKYDGDRYRTHRGDGCQNWAKTKPHHHGIGHRDKIRDKYRKNYCRNPDAKNGPWCFTNRNGDKNELCIQPRC
notes: Soluble monomer from Pichia pastoris; not shown: C-terminal myc tag-6xHis tag of pPICZaA

B4: L1234 (KD413) (designed binder)
chain: CAKAEGTGYDGHEHKTHKGIRCQNWYKSKPHYHGHQFRDGDKIKNKKNYCRNPDRELRPWCFTTDPNKRWELCDIPRC
notes: also called KD413L1234
- binding [5]: binds

- binding [6]: binds
- binding [3]: binds
B5: KD404 (designed binder)
chain: CSRDKGYRYDGDGNKTLKGHKCQHWTKSKPHDHGYRHKLGNEDKFKKNYCRNPDTRAGPWCFTDQYRDRDELCYQPRC
notes: Soluble monomer from Pichia pastoris; also called anti-DR4 Kringle domain variant KD404; not shown: C-terminal myc tag-6xHis tag of pPICZaA

B6: L1234 (KD548) (designed binder)
chain: CHQTQGPKYDGNKDKTHKGHKCQSWTKNRPHHHGNKIENEDENRFQKNYCRNPDRELRPWCFTTDPNKRWELCDIPRC
notes: also called KD548L1234
- binding [7]: binds

B7: L1234 (KD415) (designed binder)
chain: CTRSKGDEYDGHKHKTNRGLRCQHWPGTKPHFHGDKIKDRHGFRLKKNYCRNPDRELRPWCFTTDPNKRWELCDIPRC
notes: also called KD415L1234
- binding [8]: binds

B8: KD413-KD415 hetero-dimer (designed binder, not shown: small tags and cut ends)
chain: CAKAEGTGYDGHEHKTHKGIRCQNWYKSKPHYHGHQFRDGDKIKNKKNYCRNPDPRAGPWCFTHGNRNRYELCNQPRCGGGGSGGGGSGGGGSGGGGSCTRSKGDEYDGHKHKTNRGLRCQHWPGTKPHFHGDKIKDRHGFRLKKNYCRNPDPQDQPWCFTNRHQHKNELCNQPRC
- binding [1]: binds
- binding [9]: binds

B9: KD413L56 (designed binder)
chain: CMHCSGENYDGKISKTMSGLECQAWDSQSPHAHGYIPSKFPNKNLKKNYCRNPDPRAGPWCFTHGNRNRYELCDIPRC
- binding [5]: binds
- binding [10]: binds

B10: KD415L567 (designed binder)
chain: CMHCSGENYDGKISKTMSGLECQAWDSQSPHAHGYIPSKFPNKNLKKNYCRNPDPQDQPWCFTNRHQHKNELCNQPRC
- binding [8]: binds
- binding [10]: binds

B11: KD548L56 (designed binder)
chain: B9 chain with P55N, R56K, A57H, G58E, N66H, N68D, R69K, Y70H
- binding [7]: binds

B12: L56 (KD415) (designed binder)
chain: B10 chain with N74D, Q75I
notes: also called KD415L56
- binding [8]: binds

B13: L567 (KD548) (designed binder)
chain: CMHCSGENYDGKISKTMSGLECQAWDSQSPHAHGYIPSKFPNKNLKKNYCRNPDNKHEPWCFTHGHRDKHELCHEPRC
notes: also called KD548L567; not shown: Aga2p display anchor, linker and c-myc tag of the pCTCON yeast display vector
- binding [7]: binds

B14: L567 (KD413) (designed binder)
chain: B9 chain with D74N, I75Q
notes: also called KD413L567
- binding [5]: binds

B15: L5 (KD413) (designed binder)
chain: B9 chain with H64T, G65D, N66P, R67N, N68K, Y70W
notes: also called KD413L5
- binding [5]: binds

B16: KD413-KD506 hetero-dimer (designed binder, not shown: small tags and cut ends)
chain: CAKAEGTGYDGHEHKTHKGIRCQNWYKSKPHYHGHQFRDGDKIKNKKNYCRNPDPRAGPWCFTHGNRNRYELCNQPRCGGGGSGGGGSGGGGSGGGGSCPEDRGHEYDGDGDKTNRGHGCQYWDQNKPHHHGHRDKDKFKHRIKKNYCRNPDYETGPWCFTNRYRNKNELCHEPRC
- binding [11]: binds
- binding [12]: binds
- binding [13]: binds
- binding [14]: binds
